The values below come from paper doi:10.1101/717041.

By UniProt entry, the sequences of proteins in these tests, tags left out.
UniProt Q8TEW0: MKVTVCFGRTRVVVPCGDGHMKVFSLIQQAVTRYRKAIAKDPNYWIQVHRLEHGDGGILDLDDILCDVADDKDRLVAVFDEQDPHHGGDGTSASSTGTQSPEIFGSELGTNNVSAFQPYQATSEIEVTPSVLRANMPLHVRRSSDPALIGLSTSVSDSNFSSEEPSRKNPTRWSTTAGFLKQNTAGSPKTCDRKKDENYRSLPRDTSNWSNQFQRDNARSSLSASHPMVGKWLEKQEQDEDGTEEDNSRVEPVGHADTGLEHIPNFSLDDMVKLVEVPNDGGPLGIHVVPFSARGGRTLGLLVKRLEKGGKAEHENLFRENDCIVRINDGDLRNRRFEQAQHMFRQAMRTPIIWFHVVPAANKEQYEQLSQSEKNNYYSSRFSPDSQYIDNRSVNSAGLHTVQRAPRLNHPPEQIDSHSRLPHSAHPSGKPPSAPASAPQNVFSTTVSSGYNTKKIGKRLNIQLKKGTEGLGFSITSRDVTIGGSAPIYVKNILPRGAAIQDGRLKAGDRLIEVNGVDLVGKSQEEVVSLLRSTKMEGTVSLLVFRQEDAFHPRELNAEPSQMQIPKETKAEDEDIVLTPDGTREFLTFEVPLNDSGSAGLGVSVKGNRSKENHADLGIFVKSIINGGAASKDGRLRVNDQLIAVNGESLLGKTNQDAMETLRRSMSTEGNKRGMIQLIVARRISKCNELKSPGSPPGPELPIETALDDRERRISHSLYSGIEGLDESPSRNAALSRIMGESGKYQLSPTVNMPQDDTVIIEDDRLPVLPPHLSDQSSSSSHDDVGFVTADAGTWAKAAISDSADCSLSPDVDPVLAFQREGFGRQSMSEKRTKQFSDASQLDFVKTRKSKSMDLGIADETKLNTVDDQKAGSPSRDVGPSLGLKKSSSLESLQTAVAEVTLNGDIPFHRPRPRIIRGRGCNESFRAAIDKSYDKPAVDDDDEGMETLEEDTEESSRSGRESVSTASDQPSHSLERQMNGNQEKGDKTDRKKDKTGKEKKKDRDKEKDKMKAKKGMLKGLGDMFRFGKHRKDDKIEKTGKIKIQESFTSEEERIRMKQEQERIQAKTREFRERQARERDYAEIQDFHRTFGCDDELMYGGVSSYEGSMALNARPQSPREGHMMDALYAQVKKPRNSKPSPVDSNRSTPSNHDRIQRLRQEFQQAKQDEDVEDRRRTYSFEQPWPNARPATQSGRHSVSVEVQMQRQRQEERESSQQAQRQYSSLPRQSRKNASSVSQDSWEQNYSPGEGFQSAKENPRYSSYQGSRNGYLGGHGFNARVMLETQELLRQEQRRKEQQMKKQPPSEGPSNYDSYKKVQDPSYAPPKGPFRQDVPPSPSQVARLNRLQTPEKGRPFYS

For experiment [1], the target named is FLAG-PARD3-full length (UniProt Q8TEW0). The experiment in a line: co-IP.
Experiment [2] addresses T1, GST-Daple-PBM E2024K (UniProt Q9P219).
T1 sequence: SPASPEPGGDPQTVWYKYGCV
The experiment in a line: pull-down.

Experiment [3] deals with T2, GST-tagged Daple-PBM (aa 2008-2028) Y2023/2025E (UniProt Q9P219).
T2 sequence: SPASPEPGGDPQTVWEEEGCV
The experiment in a line: pull-down.

For experiment [4], the target named is T3, GST-Daple-CT (UniProt Q9P219).
T3 sequence: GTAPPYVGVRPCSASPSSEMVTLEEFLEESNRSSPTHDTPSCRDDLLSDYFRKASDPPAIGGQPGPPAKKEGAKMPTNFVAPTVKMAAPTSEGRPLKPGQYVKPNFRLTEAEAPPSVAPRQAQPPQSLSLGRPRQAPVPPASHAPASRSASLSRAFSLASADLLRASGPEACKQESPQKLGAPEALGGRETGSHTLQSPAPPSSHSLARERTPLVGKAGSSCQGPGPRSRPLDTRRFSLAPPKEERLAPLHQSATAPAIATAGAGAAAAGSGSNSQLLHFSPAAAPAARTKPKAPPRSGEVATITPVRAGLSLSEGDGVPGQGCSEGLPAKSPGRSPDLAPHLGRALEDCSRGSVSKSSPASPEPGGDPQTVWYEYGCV
The experiment in a line: pull-down.

Experiment [5] has as its target T4, GST-Daple-PBM E2024A (UniProt Q9P219).
T4 sequence: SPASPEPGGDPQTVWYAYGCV
The experiment in a line: pull-down.

The target of experiment [6] is T5, GST-tagged Daple-PBM (aa 2008-2028) Y2023E (UniProt Q9P219).
T5 sequence: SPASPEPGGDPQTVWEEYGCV
The experiment in a line: pull-down.

The target of experiment [7] is T6, GST-tagged Daple-PBM (aa 2008-2028) Y2025E (UniProt Q9P219).
T6 sequence: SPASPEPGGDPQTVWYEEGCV
The experiment in a line: pull-down.

The target of experiment [8] is T7, GST-tagged Daple-PBM (aa 2008-2028) (UniProt Q9P219).
T7 sequence: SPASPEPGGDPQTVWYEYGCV
The experiment in a line: pull-down.

Results are given in words; binding and its absence hold for the method and conditions named. In cells and extracts the contact can be indirect. Some results given as binding are weak or reduced against the parent protein; the word gives no strength. For some of these results: Sequences can lack the tags named with a protein.

Regarding “Daple-FA (F1675A) (from UniProt Q9P219 1-2028)”, the binding entry in experiment [1] is recorded as “binds”.

Take “Daple-Y2023/2025E (from UniProt Q9P219 1-2028)”: the binding entry in experiment [1] is recorded as “no binding”.

Take “FLAG-PARD3-full length (from UniProt Q8TEW0 1-1356)”: the binding entry in experiment [2] was “no binding”; in experiment [3], “no binding”; in experiment [4] it was “binds”; in experiment [5] it was “no binding”; in experiment [6], “binds”; in experiment [7], “binds”. Also, the binding result in experiment [8] was “binds”.

Regarding “full length Daple-WT (myc-Daple) (from UniProt Q9P219 1-2028)”, in experiment [1], the binding entry is on record as “binds”.
